PubChem BioAssay AID1508597 | Cure First – 2020
Here is an unselected part of about 2,100 reagents tested. 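Calls flag viability under 80% in either arm, not effects specific to rucaparib; the reference for percent is not stated.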 Not given: the 100% reference.

Purpose: 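Survival screen with siRNA in ovarian cancer cells derived from patients, with or without rucaparib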 (primary screen)
System: human ovarian carcinoma lines grown from tumours: OCI-P5x (papillary serous) and OCI-C5x (clear cell)
Reagents: siRNA pool against human genes, 1.25 pmol siRNA per well
Time to read-out: 72 h or 96 h, depending on the cell culture
Treatment: rucaparib 20 µM (about IC30) or vehicle, present until read-out
Measured: 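ATP luminescence measured at 72 or 96 h according to the culture, then normalised and expressed as percent viability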
Direction: viability, normalised: higher = more viable cells remaining
Active means: 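a well counts as a hit if its normalised viability is under 80 percent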
Meaning of the calls: active = viability under 80%; inactive = viability 80% or more

KHK, rucaparib or vehicle Rucaparib, cell line OCI-C5x (clear cell), technical replicate 1 — viability, normalised (%) = 51; outcome = active
KHK, rucaparib or vehicle Rucaparib, cell line OCI-C5x (clear cell), technical replicate 2 — viability, normalised (%) = 42.5; outcome = active
KHK, rucaparib or vehicle Rucaparib, cell line OCI-C5x (clear cell), technical replicate 3 — viability, normalised (%) = 32.2; outcome = active
KHK, rucaparib or vehicle Rucaparib, cell line OCI-P5x (serous), technical replicate 1 — viability, normalised (%) = 71.2; outcome = active
KHK, rucaparib or vehicle Rucaparib, cell line OCI-P5x (serous), technical replicate 2 — viability, normalised (%) = 61.6; outcome = active
KHK, rucaparib or vehicle Rucaparib, cell line OCI-P5x (serous), technical replicate 3 — viability, normalised (%) = 61.3; outcome = active
KHK, rucaparib or vehicle Vehicle, cell line OCI-C5x (clear cell), technical replicate 1 — viability, normalised (%) = 50; outcome = active
KHK, rucaparib or vehicle Vehicle, cell line OCI-C5x (clear cell), technical replicate 2 — viability, normalised (%) = 51.3; outcome = active
KHK, rucaparib or vehicle Vehicle, cell line OCI-C5x (clear cell), technical replicate 3 — viability, normalised (%) = 45.4; outcome = active
KHK, rucaparib or vehicle Vehicle, cell line OCI-P5x (serous), technical replicate 1 — viability, normalised (%) = 78.1; outcome = active
KHK, rucaparib or vehicle Vehicle, cell line OCI-P5x (serous), technical replicate 2 — viability, normalised (%) = 64.9; outcome = active
KHK, rucaparib or vehicle Vehicle, cell line OCI-P5x (serous), technical replicate 3 — viability, normalised (%) = 61.3; outcome = active
CLDN7, rucaparib or vehicle Rucaparib, cell line OCI-C5x (clear cell), technical replicate 1 — viability, normalised (%) = 49.2; outcome = active
CLDN7, rucaparib or vehicle Rucaparib, cell line OCI-C5x (clear cell), technical replicate 2 — viability, normalised (%) = 46.6; outcome = active
CLDN7, rucaparib or vehicle Rucaparib, cell line OCI-C5x (clear cell), technical replicate 3 — viability, normalised (%) = 37.7; outcome = active
CLDN7, rucaparib or vehicle Rucaparib, cell line OCI-P5x (serous), technical replicate 1 — viability, normalised (%) = 69.3; outcome = active
CLDN7, rucaparib or vehicle Rucaparib, cell line OCI-P5x (serous), technical replicate 2 — viability, normalised (%) = 62.4; outcome = active
CLDN7, rucaparib or vehicle Rucaparib, cell line OCI-P5x (serous), technical replicate 3 — viability, normalised (%) = 60.2; outcome = active
CLDN7, rucaparib or vehicle Vehicle, cell line OCI-C5x (clear cell), technical replicate 1 — viability, normalised (%) = 34.7; outcome = active
CLDN7, rucaparib or vehicle Vehicle, cell line OCI-C5x (clear cell), technical replicate 2 — viability, normalised (%) = 38.4; outcome = active
CLDN7, rucaparib or vehicle Vehicle, cell line OCI-C5x (clear cell), technical replicate 3 — viability, normalised (%) = 37.5; outcome = active
CLDN7, rucaparib or vehicle Vehicle, cell line OCI-P5x (serous), technical replicate 1 — viability, normalised (%) = 67.1; outcome = active
CLDN7, rucaparib or vehicle Vehicle, cell line OCI-P5x (serous), technical replicate 2 — viability, normalised (%) = 77.1; outcome = active
CLDN7, rucaparib or vehicle Vehicle, cell line OCI-P5x (serous), technical replicate 3 — viability, normalised (%) = 123; outcome = inactive

Looked up above:
CLDN7, rucaparib or vehicle Vehicle, cell line OCI-P5x (serous), technical replicate 3, outcome: inactive
For “viability, normalised (%)”, CLDN7, rucaparib or vehicle Rucaparib, cell line OCI-C5x (clear cell), technical replicate 2 is entered as 46.6
KHK, rucaparib or vehicle Vehicle, cell line OCI-C5x (clear cell), technical replicate 2, viability, normalised (%): 51.3
